# From PubChem BioAssay AID1259354 (Paczesny and Yang Labs, IUPUI and University of Michigan, 2018)
# Protein sequences, listed by entry. Tags and fused reporters are not part of them. Lines headed by an entry give the natural chain unless they say otherwise; changes in a name come on top.
# UniProt Q01638: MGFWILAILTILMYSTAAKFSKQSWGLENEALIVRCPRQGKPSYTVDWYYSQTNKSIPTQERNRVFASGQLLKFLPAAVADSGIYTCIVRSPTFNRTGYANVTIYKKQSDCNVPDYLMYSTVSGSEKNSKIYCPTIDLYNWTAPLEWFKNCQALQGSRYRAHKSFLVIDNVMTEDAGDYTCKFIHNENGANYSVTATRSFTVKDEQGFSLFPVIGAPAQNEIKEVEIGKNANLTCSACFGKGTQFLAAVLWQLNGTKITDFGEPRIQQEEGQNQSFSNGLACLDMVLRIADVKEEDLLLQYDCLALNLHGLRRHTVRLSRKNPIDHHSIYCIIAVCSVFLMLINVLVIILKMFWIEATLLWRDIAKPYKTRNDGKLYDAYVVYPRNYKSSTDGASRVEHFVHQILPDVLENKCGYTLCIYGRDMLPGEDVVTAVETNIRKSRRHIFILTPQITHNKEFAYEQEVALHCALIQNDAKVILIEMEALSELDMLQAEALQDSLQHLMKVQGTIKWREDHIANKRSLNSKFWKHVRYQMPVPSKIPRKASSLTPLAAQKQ
# About 1,800 (2.3%) of roughly 78,000 compounds were called active. The inconclusive results got no clear call from the source; some entries with a clear call stand among them for comparison. Rule as the data show it: active = inhibition above about 30%; inconclusive = mostly about 10% to 28%; inactive = weaker than that.
# Target: Interleukin-1 receptor-like 1 (Homo sapiens) (UniProt Q01638)
# Assay: blocks human ST2 binding to IL-33, primary screen, biochemical, AlphaLISA (AID 1259354)
# Settings: AlphaLISA ST2-Fc/biotin-IL-33 interaction, 1 h; at 17 µM, active compounds read high
row,Compound,inhibition
1,Cc1cccc(NC(=O)CCC2CCN(C(=O)c3ccc(-c4ccco4)cc3)CC2)c1,inactive
2,CC(=O)c1cccc(NC(=O)C2CCC2)c1,inconclusive: 18%
3,Cc1ccc(C)c(S(=O)(=O)N(CC(=O)O)Cc2c(Cl)cccc2Cl)c1,inactive
4,CCOc1ccc(NC(=O)C(=O)NCc2cccc(OC)c2)cc1,inactive
5,Cc1cccnc1NC(=O)c1sc2cccc(Cl)c2c1Cl,inconclusive: 24%
6,O=[N+]([O-])c1ccccc1N1CCN(S(=O)(=O)c2ccc(Cl)c(Cl)c2)CC1,active: 30%
7,COC(=O)[C@H](CC(C)C)NS(=O)(=O)NCc1ccccc1,inconclusive: 12%
8,O=C(CN1CCOCC1)NC12CC3CC(CC(C3)C1)C2,inconclusive: 13%
9,COc1ccc(F)c(CC2(CCC(=O)N3CCN(Cc4ccccc4OC)CC3)CCC(=O)N2)c1 (configuration not stated),inconclusive: 22%
10,O=c1/c(=C/c2ccccn2)sc2n1CN(c1ccccc1)CN=2,inconclusive: 27%
11,COc1ccc(N=Cc2cc(Cl)cc(Cl)c2O)cc1OC,inconclusive: 15%
12,Cc1ccc(CN2CCNC(=O)C2CC(=O)O)o1 (configuration not stated),inconclusive: 10%
13,O=C(C[C@@H]1O[C@H](CNCc2ccc(F)cc2)[C@@H](O)[C@H]1O)NCCN1CCOCC1,inconclusive: 29%
14,CC(=O)Nc1ccc(Cl)c(C(=O)N(C)Cc2ccc3nsnc3c2)c1,inactive
15,Cc1ccc(CNC(=O)CCCn2c(=O)c3sccc3n(Cc3ccccc3C#N)c2=O)cc1,inactive
16,CC(=O)CCCCn1c(=O)c2c(ncn2C)n(C)c1=O,inconclusive: 13%
17,CCCc1nc(N[C@H]2COC[C@@H]2N2CCCCC2)c2cnn(C)c2n1,inconclusive: 14%
18,CCOC(=O)c1c(NC(=O)COc2ccc(Cl)cc2C)sc(C(C)=O)c1C,inconclusive: 16%
19,O=[N+]([O-])c1cccc(Nc2ccccc2)c1,active: 33%
20,CCN(C(=O)C1c2ccccc2Oc2ccccc21)c1ccccc1,inactive
21,O=[N+]([O-])c1ccc(N2CCN(S(=O)(=O)c3ccc(Cl)cc3)CC2)cc1,active: 35%
22,CC1(C)C(C=C(Cl)Cl)C1C(=O)NC(c1ccccc1)C(Cl)(Cl)Cl (configuration not stated),inactive
23,Cc1noc(C)c1CC(=O)N1CCCC(Nc2ccc3c(c2)OCCO3)C1 (configuration not stated),inconclusive: 14%
24,C=CCC(=O)N(CC#Cc1ccccc1)CCC,inconclusive: 16%
25,Cc1cc(C)cc(Oc2coc3cc(OCC(=O)OCc4ccccc4)ccc3c2=O)c1,inconclusive: 18%
26,O=C(Nc1cccc(NC(=O)c2cccc(F)c2)c1)c1cccc(F)c1,inconclusive: 21%
27,CCCCNC(=O)c1ccc(Cl)cc1,inactive

# Random excerpt: two entries already listed, in no set order.
row,Compound,inhibition
20,CCN(C(=O)C1c2ccccc2Oc2ccccc21)c1ccccc1,inactive
22,CC1(C)C(C=C(Cl)Cl)C1C(=O)NC(c1ccccc1)C(Cl)(Cl)Cl (configuration not stated),inactive
